# Laboratory results: PubChem BioAssay
# Where “and” joins values, the source holds several entries; their conditions need not be identical. Equal entries are not always repeated. The list shows a part of the results. Potency and affinity values are given separately. The source made no clear call on entries shown without one.
# Legend:
# [1] = Polyglutamine toxicity reduction dose response, whole organism Drosophila SCA1 model (AID 1595); settings: at 1 µM, stronger effect = higher value
# PubChem AID 1597 = settings: Drosophila SCA1 polyglutamine model, at 1 µM, stronger effect = higher value
Compound,suppression of toxicity [1],suppression of toxicity (PubChem AID 1597)
CCOC(=O)CCC(=O)O[C@H]1[C@H](O[C@@H]2[C@@H](C)[C@H](O[C@H]3C[C@@](C)(OC)[C@@H](O)[C@H](C)O3)[C@@H](C)C(=O)O[C@H](CC)[C@@](C)(O)[C@H](O)[C@@H](C)C(=O)[C@H](C)C[C@@]2(C)O)O[C@H](C)C[C@@H]1N(C)C,1.43,4.29
CC(=O)Nc1ccc(O)cc1,0,0.715
CC(=O)Nc1ccccc1,1.43 and 0,2.86 and 12.1
C#C[C@]1(O)CCC2C3CCC4=Cc5oncc5C[C@]4(C)C3CC[C@@]21C (stereo partly drawn),0,3.58
COc1ccccc1OCC(O)CO (stereo not drawn),4.29,7.14
CS(=O)(=O)OCCCCOS(C)(=O)=O,2.86,1.43
CN(C)c1ccc(O)c2c1C[C@H]1C[C@H]3[C@H](N(C)C)C(=O)C(C(N)=O)=C(O)[C@@]3(O)C(=O)C1=C2O,0,2.85
CCCc1ncc(C[n+]2ccccc2C)c(N)n1,2.85,5.71
CCCCc1oc2ccccc2c1C(=O)c1cc(I)c(OCCN(CC)CC)c(I)c1,2.86,2.15
CCCOc1ccc2nc(NC(=O)OC)[nH]c2c1,4.29,12.1
COC(=O)/C(=C1\OC(=O)C(c2ccccc2)C1=O)c1ccccc1 (stereo not drawn),0,0.715
NC(=O)N1c2ccccc2C=Cc2ccccc21,4.29,9.29
NNCCc1ccccc1,8.57,14.3
CCn1cc(C(=O)O)c(=O)c2cc(F)c(N3CCNCC3)nc21,0,4.29
CC1CCC(NC(=O)N(CCCl)N=O)CC1 (stereo not drawn),10,12.9
CN1C2CC[C@@H]1CC(OC(=O)[C@H](CO)c1ccccc1)C2 (stereo partly drawn),4.29,0
CC1=C(/C=C/C(C)=C/C=C/C(C)=C/C=C/C=C(C)/C=C/C=C(C)/C=C/C2=C(C)CCCC2(C)C)C(C)(C)CCC1,0,7.91
NCCCCCCNS(=O)(=O)c1cccc2c(Cl)cccc12,0 and 8.57 and 7.14,0.715 and 10.7
CCN(Cc1ccncc1)C(=O)C(CO)c1ccccc1 (stereo not drawn),0,0
CCCC1O[C@@H]2CC3C4CCC5=CC(=O)C=CC5(C)C4[C@@H](O)CC3(C)[C@]2(C(=O)CO)O1 (stereo partly drawn),1.43,12.1
O=C(C1CCCCC1)N1CC(=O)N2CCc3ccccc3C2C1 (stereo not drawn),0,2.15
CC[C@@]1(O)C[C@H](OC2CC(N(C)C)C(OC3CC(O)C(OC4CCC(=O)C(C)O4)C(C)O3)C(C)O2)c2c(cc3c(c2O)C(=O)c2c(O)cccc2C3=O)[C@H]1C(=O)OC (stereo partly drawn),0,1.43

# Three structures from above, sorted by length of the SMILES, largest number first:
Compound,suppression of toxicity [1],suppression of toxicity (PubChem AID 1597)
CCOC(=O)CCC(=O)O[C@H]1[C@H](O[C@@H]2[C@@H](C)[C@H](O[C@H]3C[C@@](C)(OC)[C@@H](O)[C@H](C)O3)[C@@H](C)C(=O)O[C@H](CC)[C@@](C)(O)[C@H](O)[C@@H](C)C(=O)[C@H](C)C[C@@]2(C)O)O[C@H](C)C[C@@H]1N(C)C,1.43,4.29
COC(=O)/C(=C1\OC(=O)C(c2ccccc2)C1=O)c1ccccc1 (stereo not drawn),0,0.715
CCCc1ncc(C[n+]2ccccc2C)c(N)n1,2.85,5.71

# The list goes on.

Compound,suppression of toxicity [1],suppression of toxicity (PubChem AID 1597)
CCc1cc(C(N)=S)ccn1,1.43,5
Cc1ccc(-c2cc(C(F)(F)F)nn2-c2ccc(S(N)(=O)=O)cc2)cc1,2.85,12.1
Nc1c(Br)cc(Br)cc1CNC1CCC(O)CC1 (stereo not drawn),5.71,7.14
COc1ccc(-c2cc(=O)c3c(O)cc(O)cc3o2)cc1,1.43,0.715
COc1cc(NS(=O)(=O)c2ccc(N)cc2)ncn1,0,0.715
Cc1c(NC(=O)c2cccnc2)c(=O)n(-c2ccccc2)n1C,0,3.58
CCC1(C)CC(=O)NC1=O (stereo not drawn),5.79,6.52
CCCC(=O)O[C@]1(C(=O)CO)CCC2[C@@H]3CCC4=CC(=O)CC[C@]4(C)C3[C@@H](O)C[C@@]21C (stereo partly drawn),2.86,7.14
NC(CO)C(=O)NNCc1ccc(O)c(O)c1O (stereo not drawn),2.85,2.15
Clc1ccc(C(c2ccccc2Cl)C(Cl)Cl)cc1 (stereo not drawn),0,4.29
O=C1c2cccc(O)c2C(=O)c2c(O)cccc21,2.85,2.85
COc1ccc(C2C(=O)c3ccccc3C2=O)cc1,2.86,7.14
NC(N)=NCCN1CCCCCCC1,10,2.15
C=C1c2c(Cl)ccc(O)c2C(O)=C2C(=O)[C@]3(O)C(O)=C(C(N)=O)C(=O)[C@@H](N(C)C)[C@@H]3[C@@H](O)[C@H]12,0,0.715
Cc1ncc([N+](=O)[O-])n1CCO,2.86,7.14
NCCCC(N)CC(=O)NCC1NC(=O)C(CO)NC(=O)C(N)CNC(=O)C(C2CCN=C(N)N2)NC(=O)/C(=C/NC(N)=O)NC1=O (stereo not drawn),8.57,7.14
C[C@]12CCC3c4ccc(O)cc4CCC3C1CC[C@@H]2O (stereo partly drawn),4.29,6.43
O=c1[nH]c(=O)n(C2C[C@@H](O)[C@@H](CO)O2)cc1F (stereo partly drawn),2.85,2.15
CN1CCC[C@@H]1CCO[C@](C)(c1ccccc1)c1ccc(Cl)cc1,4.29,7.14
CO[C@@]1(NC(=O)CSCC#N)C(=O)N2C(C(=O)O)=C(CSc3nnnn3C)CSC21 (stereo partly drawn),1.43,5
O=c1c(O)c(-c2ccc(O)cc2O)oc2cc(O)cc(O)c12,12.9,15
COc1ccc(CN(CCN(C)C)c2ncccn2)cc1,0,8.57
